The record followed here is patent US8415018B2, “Article having antisoiling properties and intended to be employed in aquatic uses, in particular marine uses” (Bluestar Silicones France SAS, priority 2008, dated 2013).

Data set [1] in a line: Catalyst activity: pot-life or gel time on a simplified system. The settings on record: 0.7 mmol catalyst, 1.06 g advanced ethyl silicate, 25 g α,ω-dihydroxylated oil 14 000 centipoises.
A short description of data set [2]: Catalyst activity: Shore A hardness (SAH) of a slug 6 mm thick over increasing times. The settings on record: 23° C. and 50% relative humidity; for SAH 24 h < / SAH 6 days < / SAH (n days) < / SAH 48 h <: lower part of slug; for SAH 24 h > / SAH 6 days > / SAH (n days) > / SAH 48 h >: upper part of slug.

`CCCCNC(=NC(C)C)NC(C)C` [Catalyst A1, 1-butyl-2,3-diisopropylguanidine] returned a Pot-life in data set [1] of 0.5 min. Moreover, in data set [2], the “SAH 24 h <” value was 9 Shore A, the “SAH 6 days <” value stood at 25 Shore A, the “SAH 24 h >” value is listed as 23 Shore A and the “SAH 6 days >” value was 24 Shore A. In addition, in data set [2] (28 d), the “SAH (n days) <” value is 18 Shore A and the “SAH (n days) >” value worked out at 22 Shore A.

In the case of `CCCCN(C)/C(=N/C(C)C)NC(C)C` [Catalyst A3, 1-butyl-2,3-diisopropyl-1-methylguanidine], in data set [2], the “SAH 24 h <” value came to 9 Shore A, the “SAH 48 h <” value was determined as 22 Shore A, the “SAH 24 h >” value worked out at 23 Shore A and the “SAH 48 h >” value turned out to be 24 Shore A. In addition, in data set [2] (13 d), the “SAH (n days) <” value amounted to 21 Shore A and the “SAH (n days) >” value was 22 Shore A.

`CCCCN(C)/C(=N/C1CCCCC1)NC1CCCCC1` [Catalyst A4, 1-butyl-2,3-dicyclohexyl-1-methyl guanidine]: the Pot-life in data set [1] was in the range of 8 to 9 min. Also, in data set [2], the “SAH 24 h <” value was found to be 19 Shore A, the “SAH 48 h <” value was 21 Shore A, the “SAH 6 days <” value is 24 Shore A and the “SAH 24 h >” value is 21 Shore A. Moreover, in data set [2], the “SAH 48 h >” value was 21 Shore A and the “SAH 6 days >” value stood at 24 Shore A. In addition, in data set [2] (13 d), the “SAH (n days) <” value is on record as 23 Shore A and the “SAH (n days) >” value is given as 23 Shore A.

Take `CN(C)C(=N)N(C)C` [Comparative 2 (TMG), 1,1,3,3-tetramethylguanidine, reference compound]: the Pot-life in data set [1] came to 7 min.

As to “dimethyltin bisneodecanoate [Comparative 1 (Sn), reference compound]”, in data set [2], the “SAH 24 h <” value was found to be 22.5 Shore A and the “SAH 24 h >” value worked out at 22.5 Shore A. In data set [2] (20 d), the “SAH (n days) <” value worked out at 23 Shore A and the “SAH (n days) >” value turned out to be 23 Shore A.
